Source: US20260241012A1, “1,8-NAPHTHYRIDIN-2-ONE HETEROBIFUNCTIONAL BCL6 DEGRADERS” (Treeline Biosciences, Inc., priority 2022, published 2026)

Target: N-terminal HiBiT tagged BCL6 (Homo sapiens, UniProt P41182)
Assay: HiBiT based degradation assay
Settings: HT1080 cells expressing N-terminal HiBiT tagged BCL6, 5 hours of incubation
Source text: Human BCL6 protein coding open reading frame fused with N-terminal HiBiT coding sequence was synthesized from Integrated DNA Technologies (IDT). Next, the N-HiBiT-BCL6 sequence was cloned into pLV-UBC-PGK-Puro, a lentivirus plasmid purchased from Vectorbuilder, to generate pLV-UBC-N-HiBiT-BCL6-PGK-puro. Lentiviral particles were generated from Lenti-X™ 293T cells (Clontech) by co-transfection of pLV-UBC-N-HiBiT-BCL6-PGK-puro plasmids and lentiviral packaging plasmid mix (Cellecta). HT1080 [HT1080] (ATCC CCL-121) cells were infected with the lentivirus, and HT1080 cells stably integrated with the lentiviral vectors were established by incubation with 1 μg/mL puromycin (Thermofisher).
HT1080 cells expressing N-terminal HiBiT tagged BCL6 were dispensed into a 384-well plate pre-spotted with compounds at varying concentrations. Five thousand cells were seeded into each well in 40 μL of RPMI 1640 media plus 10% Fetal Bovine Serum (10082-147, Thermofisher). After 5 hours of incubation at 37° C. with 5% CO2, 30 μL of the NANO-GLOR HiBiT Lytic Detection System working solution (Promega) was added to each well and incubated at room temperature for 15 min. After incubation, luminescence was read on a PHERAstar FSX Plate Reader (BMG). BCL6 degradation at each indicated concentration was normalized with DMSO control. The BCL6 degradation curves were plotted using a four-parameter logistic model.

CNC(=O)COc1cc2cc(Nc3nc(N4CCC5(CCN(CC6CCN(c7ccc8c(C9CCC(=O)NC9=O)nn(C)c8c7)CC6)CC5)CC4)ncc3Cl)cnc2n(C)c1=O (centres unmarked)
Ymin (5 hr) (BCL6 degradation normalized with DMSO control): ++++ (Ymin < 30%) | EC50 (read-out: EC50 (5 hr), four-parameter logistic model): < 0.01 µM

The structures given here were assigned with low confidence; some may be wrong.
